Measured values: article doi:10.1101/2024.10.11.617944
No constants are given. Whether binding was seen depends on the method and setting. Some results given as binding are weak or reduced against the parent protein; the word gives no strength. Sequences can lack the tags named with a protein.

Key:
Assay in all cases: two-hybrid
[1] = target: T1, ABI5-Binding Protein 1 (AFP1), yeast two-hybrid fusions (Arabidopsis thaliana), Q9LQ98; settings: remark: other sources report otherwise
T1 chain: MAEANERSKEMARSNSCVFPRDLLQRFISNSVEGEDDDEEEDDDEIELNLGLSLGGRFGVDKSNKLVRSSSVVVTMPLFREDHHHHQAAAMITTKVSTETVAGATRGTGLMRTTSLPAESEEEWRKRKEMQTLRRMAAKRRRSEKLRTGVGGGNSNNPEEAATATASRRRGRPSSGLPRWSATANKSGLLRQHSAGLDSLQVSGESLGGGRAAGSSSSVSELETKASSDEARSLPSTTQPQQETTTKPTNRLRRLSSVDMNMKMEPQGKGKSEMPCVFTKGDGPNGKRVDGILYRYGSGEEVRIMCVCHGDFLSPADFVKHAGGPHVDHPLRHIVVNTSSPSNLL

[2] = target: T2, ABI5-Binding Protein 2 (AFP2), yeast two-hybrid fusions (Arabidopsis thaliana), Q9LMX5; settings: remark: other sources report otherwise
T2 chain: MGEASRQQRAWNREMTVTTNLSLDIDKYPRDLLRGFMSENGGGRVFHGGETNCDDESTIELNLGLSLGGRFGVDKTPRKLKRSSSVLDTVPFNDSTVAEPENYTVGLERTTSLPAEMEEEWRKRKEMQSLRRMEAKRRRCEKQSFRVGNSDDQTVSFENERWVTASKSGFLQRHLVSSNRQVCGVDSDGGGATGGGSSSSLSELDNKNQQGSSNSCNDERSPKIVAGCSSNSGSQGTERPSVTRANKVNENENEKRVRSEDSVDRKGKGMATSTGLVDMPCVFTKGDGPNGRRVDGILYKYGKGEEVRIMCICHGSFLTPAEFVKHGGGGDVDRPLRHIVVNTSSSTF

[3] = target: T3, ABI5-Binding Protein 3 (AFP3), yeast two-hybrid fusions (Arabidopsis thaliana), Q94F39; settings: remark: other sources report otherwise
T3 chain: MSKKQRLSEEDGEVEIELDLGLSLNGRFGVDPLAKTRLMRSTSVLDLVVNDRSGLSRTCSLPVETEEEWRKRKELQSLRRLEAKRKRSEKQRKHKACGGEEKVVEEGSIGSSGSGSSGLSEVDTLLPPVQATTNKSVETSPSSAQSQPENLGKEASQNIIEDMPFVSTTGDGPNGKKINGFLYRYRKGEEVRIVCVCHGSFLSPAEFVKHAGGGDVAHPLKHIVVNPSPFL

[4] = target: T4, ABI5-Binding Protein 4 (AFP4), yeast two-hybrid fusions (Arabidopsis thaliana), Q9S7Z2; settings: remark: other sources report otherwise
T4 chain: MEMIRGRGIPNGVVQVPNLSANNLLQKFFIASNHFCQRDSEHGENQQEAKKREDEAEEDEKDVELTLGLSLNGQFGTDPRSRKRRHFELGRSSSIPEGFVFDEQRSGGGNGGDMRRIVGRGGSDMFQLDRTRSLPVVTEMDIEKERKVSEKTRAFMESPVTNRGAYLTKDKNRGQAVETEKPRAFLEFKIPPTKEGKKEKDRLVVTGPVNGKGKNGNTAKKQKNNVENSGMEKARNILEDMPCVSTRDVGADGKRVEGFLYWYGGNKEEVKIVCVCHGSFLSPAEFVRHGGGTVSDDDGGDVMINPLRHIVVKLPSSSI

[5] = target: T5, ABI5-Binding Protein 2 (AFP2), yeast two-hybrid fusions (Arabidopsis thaliana) (UniProt Q9LMX5)
T5 sequence: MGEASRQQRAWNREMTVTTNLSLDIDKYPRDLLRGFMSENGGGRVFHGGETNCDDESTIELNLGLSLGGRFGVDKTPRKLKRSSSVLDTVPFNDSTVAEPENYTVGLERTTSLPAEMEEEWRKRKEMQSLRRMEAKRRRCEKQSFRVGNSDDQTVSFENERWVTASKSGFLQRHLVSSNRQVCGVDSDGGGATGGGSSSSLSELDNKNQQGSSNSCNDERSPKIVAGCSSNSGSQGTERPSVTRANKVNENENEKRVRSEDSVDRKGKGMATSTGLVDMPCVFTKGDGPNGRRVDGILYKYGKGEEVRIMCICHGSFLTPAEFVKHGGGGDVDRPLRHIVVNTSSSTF

[6] = target: AFP2-AB domain, yeast two-hybrid fusions (Arabidopsis thaliana) (UniProt Q9LMX5)

B1: ABA-… …ON 3 (AHG3), AD fusion, P49598 1-399 (enzyme)
chain: MAGICCGVVGETEPAAPVDSTSRASLRRRLDLLPSIKIVADSAVAPPLENCRKRQKRETVVLSTLPGNLDLDSNVRSENKKARSAVTNSNSVTEAESFFSDVPKIGTTSVCGRRRDMEDAVSIHPSFLQRNSENHHFYGVFDGHGCSHVAEKCRERLHDIVKKEVEVMASDEWTETMVKSFQKMDKEVSQRECNLVVNGATRSMKNSCRCELQSPQCDAVGSTAVVSVVTPEKIIVSNCGDSRAVLCRNGVAIPLSVDHKPDRPDELIRIQQAGGRVIYWDGARVLGVLAMSRAIGDNYLKPYVIPDPEVTVTDRTDEDECLILASDGLWDVVPNETACGVARMCLRGAGAGDDSDAAHNACSDAALLLTKLALARQSSDNVSVVVVDLRKRRNNQASS
binding [1]: binds
binding [2]: binds
binding [3]: binds
binding [4]: binds

B2: AFP2-AB domain, yeast two-hybrid fusions (domain or fragment, UniProt Q9LMX5 1-149)
chain: MGEASRQQRAWNREMTVTTNLSLDIDKYPRDLLRGFMSENGGGRVFHGGETNCDDESTIELNLGLSLGGRFGVDKTPRKLKRSSSVLDTVPFNDSTVAEPENYTVGLERTTSLPAEMEEEWRKRKEMQSLRRMEAKRRRCEKQSFRVGN
binding [5]: binds
binding [6]: no binding
